We go through 21 compounds from PubChem BioAssay AID330 (DTP/NCI, 2004).

The list does not hold the whole screen: it is rich in T/C values a quarter to a half above the control, in often repeated tests (any T/C) and in doses without a T/C. Other doses and runs of a compound stand elsewhere. T/C: endpoint of the treated group in % of that of the vehicle group. Some entries give survivors of the animals treated and no T/C: the source holds a T/C of zero for them, seemingly a mark for toxic or unscored doses. Some survivor counts are full or nearly so, which does not show that the dose was tolerated: survival well below the control is almost never listed, so the zero probably covers shortened survival too. Survivors were counted at the toxicity check, usually on the fifth day, unless a day is given; later deaths do not show. Schedule codes are those of the source, taken here to give the interval after Q, in days (D) or hours (H), and the number of doses after X. Some entries hold several experiments; the values are given in rising order. Where survival is the endpoint, this PubChem deposit counts one and a half times the control or more as active, and values a quarter to a half above the control carry no call in these data; other NCI protocols may use other cut-offs.

In the assay the test system is P388 leukemia ip, CD2F1 mice, survival T/C. Put plainly: NCI In Vivo Anticancer Drug Screen. Data for tumor model P388 Leukemia (intraperitoneal) in CD2F1 (CDF1) mice. The conditions noted are these: T/C endpoint: median survival time, higher T/C = longer survival.
Setting [1] is: dose: 200.0 mg/kg/injection, schedule: Q01DX005 (ip), vehicle: Klucel (hydroxypropylcellulose) (HPC).
[2] abbreviates: dose: 200.0 mg/kg/injection, schedule: Q04DX003 (ip), vehicle: Klucel (hydroxypropylcellulose) (HPC).
The mark [3] stands for this setting: dose: 200.0 mg/kg/injection, schedule: Q01DX005 (ip), vehicle: saline.
Where [4] appears, read: dose: 100.0 mg/kg/injection, schedule: Q01DX005 (ip), vehicle: Klucel (hydroxypropylcellulose) (HPC).
Where [5] appears, read: dose: 50.0 mg/kg/injection, schedule: Q01DX009 (ip), vehicle: saline.
Setting [6] is: dose: 100.0 mg/kg/injection, schedule: Q01DX009 (ip), vehicle: saline.

For `COc1ccc(NP2(=O)N(Cc3ccc(Cl)cc3)CCCN2Cc2ccc(Cl)cc2)cc1`, the survivor count under setting [1] was 6 of 6.
Regarding `COc1ccc(/C=C/C(C)=N/NC(N)=S)cc1`, the survivor count is 0 of 6 (dose: 25.0 mg/kg/injection, schedule: Q01DX005 (ip), vehicle: Klucel + Tween-80); 0 of 6 (dose: 50.0 mg/kg/injection, schedule: Q01DX005 (ip), vehicle: Klucel + Tween-80); 0 of 6 (dose: 100.0 mg/kg/injection, schedule: Q01DX005 (ip), vehicle: Klucel + Tween-80); 0 of 6 (dose: 200.0 mg/kg/injection, schedule: Q01DX005 (ip), vehicle: Klucel + Tween-80).
Take `O=S1(c2ccccc2)=NP(N2CC2)(N2CC2)=NP(N2CC2)(N2CC2)=N1` (centres undefined): for the setting “dose: 150.0 mg/kg/injection, schedule: Q04DX003 (ip), vehicle: saline”, the T/C is 147 % of control.
On to `Cc1ccc(S(=O)(=O)N(C=O)c2ccccc2)cc1`, for which the survivor count (dose: 200.0 mg/kg/injection, schedule: Q01DX009 (ip), vehicle: saline with Tween-80) was 5 of 6.
Take `CC(C)=CC[P+](CCCC[P+](CC=C(C)C)(c1ccccc1)c1ccccc1)(c1ccccc1)c1ccccc1`: the survivor count (dose: 6.25 mg/kg/injection, schedule: Q04DX003 (ip), vehicle: saline) is reported as 0 of 6; the survivor count (dose: 12.5 mg/kg/injection, schedule: Q04DX003 (ip), vehicle: saline) was 0 of 6; the survivor count (dose: 25.0 mg/kg/injection, schedule: Q04DX003 (ip), vehicle: saline) is on record as 0 of 6; the survivor count (dose: 50.0 mg/kg/injection, schedule: Q04DX003 (ip), vehicle: saline) was 0 of 6; the survivor count (dose: 100.0 mg/kg/injection, schedule: Q04DX003 (ip), vehicle: saline) is recorded as 0 of 6; the survivor count (dose: 200.0 mg/kg/injection, schedule: Q04DX003 (ip), vehicle: saline) is given as 0 of 6. The survivor count (dose: 400.0 mg/kg/injection, schedule: Q04DX003 (ip), vehicle: saline) is 0 of 6.
Regarding `CCCN=Cc1cc(Cc2ccc(O)c(C=NCCC)c2)ccc1O`, under setting [2], the T/C is 126 % of control and the survivor count is recorded as 2 of 6. Under “dose: 400.0 mg/kg/injection, schedule: Q04DX003 (ip), vehicle: Klucel (hydroxypropylcellulose) (HPC)”, the survivor count was 1 of 6.
On to `CCOC(=O)Nc1nncs1`, for which the T/C runs as follows: (dose: 50.0 mg/kg/injection, schedule: Q01DX009 (ip), vehicle: distilled water + Tween-80) 132 % of control; (dose: 100.0 mg/kg/injection, schedule: Q01DX009 (ip), vehicle: distilled water + Tween-80) 142 % of control. For the same compound, under “dose: 400.0 mg/kg/injection, schedule: Q01DX009 (ip), vehicle: distilled water + Tween-80”, the survivor count is on record as 2 of 6.
For the compound `CCC[C@@H]1[C@@H](CCC)N1C(=N)OCC`, the survivor count is 0 of 6 (dose: 100.0 mg/kg/injection, schedule: Q01DX005 (ip), vehicle: saline) and 0 of 6 under setting [3].
In the case of `O=C(Nc1nnc(-c2cc(=O)c3cc(Cl)ccc3o2)s1)c1ccccc1`, where the note is “dose: 50.0 mg/kg/injection, schedule: Q01DX005 (ip), vehicle: saline with Tween-80”, the survivor count is 6 of 6.
Take `O=NNc1ccc(I)cn1`: the T/C was 131 % of control (dose: 3.13 mg/kg/injection, schedule: Q01DX009 (ip), vehicle: water) and 146 % of control (dose: 6.25 mg/kg/injection, schedule: Q01DX009 (ip), vehicle: water). For the same compound, the survivor count runs as follows: (dose: 25.0 mg/kg/injection, schedule: Q01DX009 (ip), vehicle: water) 5 of 6 and 6 of 6; (dose: 50.0 mg/kg/injection, schedule: Q01DX009 (ip), vehicle: water) 1 of 6.
Consider `COC1=C(C)C(=O)c2[nH]ccc2C1=O`, for which the survivor count is reported as 4 of 6 (dose: 200.0 mg/kg/injection, schedule: Q04DX002 (ip), vehicle: saline with Tween-80) and 0 of 6 (dose: 400.0 mg/kg/injection, schedule: Q04DX002 (ip), vehicle: saline with Tween-80).
In the case of `CC(C)NC(=O)OCc1c(COC(=O)NC(C)C)c(-c2ccc(Cl)c(Cl)c2)n2c1CC(OC(=O)CN(C)C)C2` (centres undefined), the T/C (dose: 10.0 mg/kg/injection, schedule: Q01DX009 (ip), vehicle: water) is 128 % of control; the T/C (dose: 20.0 mg/kg/injection, schedule: Q01DX009 (ip), vehicle: distilled water + Tween-80) was 141 % of control; the T/C (dose: 20.0 mg/kg/injection, schedule: Q01DX009 (ip), vehicle: water) is 146 % of control; the T/C (dose: 40.0 mg/kg/injection, schedule: Q01DX009 (ip), vehicle: distilled water + Tween-80) is 141 % of control; the T/C (dose: 40.0 mg/kg/injection, schedule: Q01DX009 (ip), vehicle: water) was 144 % of control; the T/C (dose: 80.0 mg/kg/injection, schedule: Q01DX009 (ip), vehicle: distilled water + Tween-80) is 140 % of control.
As to `O=C(Nc1ccc(Oc2ccc(Cl)cc2)c(Cl)c1)c1cc(I)cc(I)c1O`, the survivor count under setting [4] is 1 of 6 and the survivor count under setting [1] is on record as 0 of 6.
With `Cc1ccc(C(=O)c2ccc[n+](C)c2)cc1`, under setting [3], the survivor count is reported as 0 of 6.
The same measure, in the same setting: then `OC1Cc2ccccc2CC1NC1CCCCC1` (centres undefined), with 0 of 6.
Take `Cc1cc2c(cc1C)NC1=C(N2)OC(c2cccc(O)c2)C1=O` (centres undefined): the survivor count is listed as 6 of 6 (dose: 60.0 mg/kg/injection, schedule: Q01DX005 (ip), vehicle: Klucel (hydroxypropylcellulose) (HPC)); 6 of 6 (dose: 120.0 mg/kg/injection, schedule: Q01DX005 (ip), vehicle: Klucel (hydroxypropylcellulose) (HPC)); 6 of 6 (dose: 240.0 mg/kg/injection, schedule: Q01DX005 (ip), vehicle: Klucel (hydroxypropylcellulose) (HPC)).
With `CCO/C(C)=N\c1nc(C)[nH]c1C(N)=O`, the survivor count by setting is: under setting [5], 6 of 6; under setting [6], 6 of 6.
For the compound `[I][Ga]([I])[I]`, the survivor count (dose: 200.0 mg/kg/injection, schedule: Q04DX003 (ip), vehicle: saline sonified) is on record as 5 of 6 and the survivor count (dose: 400.0 mg/kg/injection, schedule: Q04DX003 (ip), vehicle: saline sonified) is recorded as 5 of 6.
In the case of `COC(=O)/C(=C1/OC(=O)C(c2ccccc2)=C1O)c1ccccc1`, the survivor count was 1 of 3 under setting [6] and 0 of 3 (dose: 200.0 mg/kg/injection, schedule: Q01DX009 (ip), vehicle: saline).
In the case of `CC(=O)NC1=C(N2CC2C)C(=O)C(NC(C)=O)=C(N2CC2C)C1=O` (centres undefined), the T/C (dose: 12.5 mg/kg/injection, schedule: Q01DX009 (ip), vehicle: saline) is 145 % of control. Besides, the survivor count reads like this: (dose: 25.0 mg/kg/injection, schedule: Q01DX009 (ip), vehicle: saline) 6 of 6; under setting [5], 5 of 6.
Consider `CCC(O)(C(=O)O)c1cc[n+](Cc2cnc3ccccc3c2)cc1C` (centres undefined), for which the survivor count runs as follows: (dose: 50.0 mg/kg/injection, schedule: Q01DX005 (ip), vehicle: Klucel (hydroxypropylcellulose) (HPC)) 6 of 6; under setting [4], 2 of 6; under setting [1], 0 of 6.
